Experimental data taken from patent CN115521378A.
These are yes or no findings as the source states them, for the method shown. Some entries that bind do so weakly or less than the wild type.

The chains behind the UniProt entries cited, without tags or fusion partners.
UniProt Q9NZQ7: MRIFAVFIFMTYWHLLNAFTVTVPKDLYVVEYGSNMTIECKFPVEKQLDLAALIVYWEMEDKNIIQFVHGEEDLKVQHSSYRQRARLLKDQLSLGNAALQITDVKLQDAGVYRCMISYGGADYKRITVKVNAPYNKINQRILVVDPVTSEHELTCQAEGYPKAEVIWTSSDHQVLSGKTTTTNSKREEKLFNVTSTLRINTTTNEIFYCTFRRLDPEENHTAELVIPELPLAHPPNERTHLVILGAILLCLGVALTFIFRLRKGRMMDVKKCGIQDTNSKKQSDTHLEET

Target: PD-L1蛋白 (human) (UniProt Q9NZQ7)
Assay: SPR (Biacore T200), antibody captured by anti-human Fc on CM5, PD-L1 as analyte

Row | binding | Binder
1 | binds | AH00233 (antibody, V domains shown) VH: QVQLVQSGAEVKKPGSSVKVSCKASGYTFTSNWMHWDRQAPGQGLDWMGMIHPNSAIKYNEKFKSRVTITADKSTSTAYMELSSLRSEDTAVYYCARSYYGSSPYFFDYWGQGTMVTVSS VL: DIQMTQSPSSLSASVGDRVTISCRASQDISKYLNWYQQKPGKAVKFLIYYTSRLHSGVPSRFSGSGSGTDYTLTISSLQPEDFATYFCQQGDTLPWTFGGGTKVEIK
2 | binds | hu13H6D3 (antibody, V domains shown) VH: QVQLVQSGAEVKKPGSSVKVSCKASGYTFTSNWMHWVRQAPGQGLEWMGMIHPNSAIKYNEKFKSRVTITADKSTSTAYMELSSLRSEDTAVYYCARSYYGSSPYFFDYWGQGTMVTVSS VL: DIQMTQSPSSLSASVGDRVTITCRASQDISKYLNWYQQKPGKAPKLLIYYTSRLHSGVPSRFSGSGSGTDFTLTISSLQPEDFATYYCQQGDTLPWTFGGGTKVEIK
3 | binds | AH00230 (antibody, V domains shown) VH: QVQLVQSGAEVKKPGSSVKVSCKASGYTFTSNWMHWMRQAPGQGLDWMGMIHPNSAIKYNEKFKSRVTITADKSTSTAYMELSSLRSEDTAVYYCARSYYGSSPYFFDYWGQGTMVTVSS VL: DIQMTQSPSSLSASVGDRVTISCRASQDISKYLNWYQQKPGKAVKFLIYYTSRLHSGVPARFSGSGSGTDYTLTISSLQPEDFATYFCQQGDTLPWTFGGGTKVEIK
4 | binds | AH00232 (antibody, V domains shown) VH: QVQLVQSGAEVKKPGSSVKVSCKASGYTFTSNWMHWMRQAPGQGLDWIGMIHPNSAIKYNEKFKSRVTLTADKSTSTAYMELSSLRSEDTAVYYCARSYYGSSPYFFDYWGQGTMVTVSS VL: DIQMTQSPSSLSASVGDRVTITCRASQDISKYLNWYQQKPGKAVKFLIYYTSRLHSGVPARFSGSGSGTDYTLTISSLQPEDFATYYCQQGDTLPWTFGGGTKVEIK
5 | binds | AH00229 (antibody, V domains shown) VH: QVQLVQSGAEVKKPGSSVKVSCKASGYTFTSNWMHWVRQAPGQGLDWMGMIHPNSAIKYNEKFKSRATITADKSTSTAYMELSSLRSEDTAVYYCARSYYGSSPYFFDYWGQGTMVTVSS VL: DIQMTQSPSSLSASVGDRVTISCRASQDISKYLNWYQQKPGKAVKFLIYYTSRLHSGVPSRFSGSGSGTDYTLTISSLQPEDFATYFCQQGDTLPWTFGGGTKVEIK
6 | binds | 5BM (antibody, V domains shown) VH: QVQLVQSGAEVKKPGSSVKVSCKASGYTFTSNWMHWMRQAPGQGLDWIGMIHPNSAIKYNEKFKSRATLTADKSTSTAYMELSSLRSEDTAVYYCARSYYGSSPYFFDYWGQGTMVTVSS VL: DIQMTQSPSSLSASVGDRVTISCRASQDISKYLNWYQQKPGKAVKFLIYYTSRLHSGVPARFSGSGSGTDYTLTISSLQPEDFATYFCQQGDTLPWTFGGGTKVEIK
7 | binds | CBM (antibody, V domains shown) VH: QVQLVQSGAEVKKPGSSVKVSCKASGYTFTSNWMHWMKQAPGQGLEWIGMIHPNSAIKYNEKFKSRATLTADKSTSTAYMELSSLRSEDTAVYYCARSYYGSSPYFFDYWGQGTMVTVSS VL: DIQMTQSPSSLSASVGDRVTITCRASQDISKYLNWYQQKPGKAPKFLIYYTSRLHSGVPSRFSGSGSGTDYTLTISSLQPEDVATYFCQQGDTLPWTFGGGTKVEIK
8 | binds | AH00228 (antibody, V domains shown) VH: QVQLVQSGAEVKKPGSSVKVSCKASGYTFTSNWMHWMRQAPGQGLEWMGMIHPNSAIKYNEKFKSRVTLTADKSTSTAYMELSSLRSEDTAVYYCARSYYGSSPYFFDYWGQGTMVTVSS VL: DIQMTQSPSSLSASVGDRVTISCRASQDISKYLNWYQQKPGKAVKFLIYYTSRLHSGVPARFSGSGSGTDYTLTISSLQPEDFATYFCQQGDTLPWTFGGGTKVEIK
9 | binds | AH00231 (antibody, V domains shown) VH: QVQLVQSGAEVKKPGSSVKVSCKASGYTFTSNWMHWMRQAPGQGLEWMGMIHPNSAIKYNEKFKSRVTITADKSTSTAYMELSSLRSEDTAVYYCARSYYGSSPYFFDYWGQGTMVTVSS VL: DIQMTQSPSSLSASVGDRVTITCRASQDISKYLNWYQQKPGKAVKFLIYYTSRLHSGVPARFSGSGSGTDYTLTISSLQPEDFATYFCQQGDTLPWTFGGGTKVEIK
